The campaign covered roughly 340,000 compounds. About 4,500 (1.3%) were called active. Inconclusive results, whose numbers are uncertain, are shown with a selection of clear calls. Calls come from the whole dose curve; as a rule, active = well fitted inhibition curve with a large enough effect; inconclusive = small, poorly fitted or top-dose-only effect, or another doubt; inactive = no such curve, though single readings can be large or run the other way. A potency beside an inconclusive call is a rough fit, not a confirmed value.
Biological target: DNA polymerase beta (Homo sapiens) (UniProt P06746)
Assay: qHTS Assay for Inhibitors of DNA Polymerase Beta
Settings: Pol beta primer extension/strand displacement, fluorescence kinetic; activity change, negative = inhibition: at 114 µM (top of the series)
Summary of the method: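 Homogeneous kinetic assay of primer extension and strand displacement by 10 nM Pol beta, preincubated 15 min at room temperature with compound before 50 nM substrate (final) was added. Read at 0 and 10 min; four-parameter Hill fit.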
% is set by controls: 0 for no effect and ±100 for the full control effect; potency is the fitted concentration of half-maximal effect.

Q: How did the Potency turn out when `CCOC(=O)N1CCC2(CC1)C(C#N)=C(N)Oc1n[nH]c(CSc3ccc(C)cc3)c12` was run?
A: Its Potency is inconclusive: 89.1 µM [inhibitor, single point].

Q: `O=C(Nc1nc2ccccc2s1)C1CCN(S(=O)(=O)c2cc([N+](=O)[O-])ccc2Cl)CC1` was tested. Which activity change, negative = inhibition did it give?
A: The activity change, negative = inhibition was inconclusive: -92.9% [inhibitor].

Q: How did the Potency turn out when `N#C/C(=C\c1ccc(-c2ccc(C(=O)O)cc2)o1)c1nc2ccccc2[nH]1` was run?
A: Its Potency is inconclusive: 2.82 µM [inhibitor, full curve, poor fit].

Q: And the activity change, negative = inhibition?
A: Its activity change, negative = inhibition is inconclusive: -138% [inhibitor].

Q: `COc1c(CC=C(C)C)cc(C2CC(=O)c3c(O)cc(O)cc3O2)cc1CC=C(C)C` (centres undefined) was tested. Which Potency did it give?
A: The Potency was “inactive”.

Q: For `CCOc1ccccc1C(=O)OCC(=O)Nc1ncc(C(F)(F)F)cc1Cl`, which Potency is on record?
A: The Potency was inconclusive: 4.47 µM [inhibitor, single point].

Q: `CCOC(=O)c1c(C)[nH]c(C)c1C(=O)COC(=O)c1cccc(S(=O)(=O)NC)c1` was tested. Which Potency did it give?
A: The Potency was “inactive”.

Q: With `COc1ccc(/C=C2\C(=N)N3N=C(CC(=O)N4CCOCC4)SC3=NC2=O)cc1` as the molecule, how does the Potency read?
A: The Potency was “inactive”.

Q: How did the Potency turn out when `O=C(NNC(=O)c1ccc(S(=O)(=O)N2CCCCC2)cc1)c1ccc(F)cc1` was run?
A: Its Potency is inconclusive: 22.4 µM [inhibitor, partial curve, poor fit].

Q: How did the Potency turn out when `CCOC(=O)c1ccccc1NC(=O)c1cccc(F)c1` was run?
A: Its Potency is inconclusive: 31.6 µM [inhibitor, single point].

Q: `COC(=O)C(=O)C/C(=N/Nc1ncnc2ccccc12)c1ccc(Cl)cc1` was tested. Which activity change, negative = inhibition did it give?
A: Its activity change, negative = inhibition is inconclusive: -74.1% [inhibitor].

Q: For `O=S1(=O)c2ccccc2N(Cc2ccccc2Cl)c2ccccc21`, which Potency is on record?
A: Its Potency is “inactive”.

Q: Which Potency does the source give for `COc1ccc(S(=O)(=O)N(C)C(C)CCc2ccco2)cc1` (centres undefined) here?
A: Its Potency is inconclusive: 20 µM [inhibitor, full curve].

Q: For `Oc1ccc(C2CNCCc3c2cc(O)c(O)c3Cl)cc1` (centres undefined), which Potency is on record?
A: Its Potency is inconclusive: 22.4 µM [inhibitor, partial curve].

Q: For `O=C(N/N=C/C=C\c1cccc([N+](=O)[O-])c1)c1ccccn1`, which Potency is on record?
A: Its Potency is inconclusive: 31.6 µM [inhibitor, single point].

Q: `CC(=O)Nc1cccc(NC(=O)CSc2ncc(-c3ccccc3)[nH]2)c1` was tested. Which Potency did it give?
A: The Potency was active: 14.1 µM.

Q: For `c1ccc(Cn2nnnc2C(c2ccncc2)N2CCOCC2)cc1` (centres undefined), which Potency is on record?
A: Its Potency is inconclusive: 89.1 µM [inhibitor, single point].

Q: How did the activity change, negative = inhibition turn out when `CC(C)c1nc2cc(C(=O)NC(c3cccnc3)C(F)(F)F)ccc2o1` (centres undefined) was run?
A: Its activity change, negative = inhibition is inconclusive: -33.6% [inhibitor].

Q: Which Potency does the source give for `CN1C(=O)NC(c2ccc(O)cc2)C2=C1CN(c1ccccc1)C2=O` (centres undefined) here?
A: Its Potency is “inactive”.

Q: Which Potency does the source give for `CCN(CC)CCN1C(=O)c2ccccc2NC1c1ccc(F)cc1` (centres undefined) here?
A: The Potency was inconclusive: 31.6 µM [inhibitor, single point].

Q: How did the Potency turn out when `CCc1ccc(OCC(=O)NNC(=O)Cc2cccs2)cc1` was run?
A: The Potency was active: 20 µM.

Q: `O=C(Nc1cc(Cl)cc(Cl)c1)N1CCCC1` was tested. Which Potency did it give?
A: Its Potency is inconclusive: 79.4 µM [inhibitor, single point].

Q: Which Potency does the source give for `N#CC1=C(SCC(=O)Nc2cccc3cccnc23)NC(=O)C(C#N)C12CCCCC2` (centres undefined) here?
A: The Potency was inconclusive: 22.4 µM [inhibitor, full curve].

Q: For `Cc1cc2c(c(=O)n1Cc1ccccc1)C1O[C@](c3ccsc3)(Cc3cc(C#N)ccc31)O2`, which Potency is on record?
A: The Potency was inconclusive: 0.355 µM [inhibitor, partial curve, poor fit].

Q: How did the Potency turn out when `COc1cc(OC)cc(C(=O)N[C@H](C(=O)Nc2nc3ccccc3[nH]2)C(C)C)c1` was run?
A: Its Potency is inconclusive: 100 µM [inhibitor, single point].

Q: Which Potency does the source give for `Cc1cc2nccc(-c3ccc(F)cc3)n2n1` here?
A: The Potency was inconclusive: 100 µM [inhibitor, single point].

Q: `CCn1c(Cl)c(C=O)s/c1=N\S(=O)(=O)c1ccccc1` was tested. Which Potency did it give?
A: Its Potency is inconclusive: 0.141 µM [inhibitor, full curve, poor fit].

Q: With `COc1ccc(OC)c(NC(=O)CCN2C(=O)c3ccccc3C2=O)c1` as the molecule, how does the Potency read?
A: The Potency was inconclusive: 0.141 µM [inhibitor, full curve, poor fit].

Q: For `CCCCN1C(=O)/C(=C/C=C2\Oc3ccccc3N2CC)SC1=S`, which Potency is on record?
A: Its Potency is “inactive”.

Q: How did the Potency turn out when `Cc1ccc(S(=O)(=O)NCC(=O)OCC(=O)Nc2ncc(Cl)cc2Cl)cc1` was run?
A: Its Potency is inconclusive: 11.2 µM [inhibitor, partial curve, poor fit].

Q: Which Potency does the source give for `CCOc1ccc(CCNC(=O)c2ccc3[nH]c(C)c(C)c3c2)cc1` here?
A: The Potency was inconclusive: 56.2 µM [inhibitor, partial curve].

Q: With `O=C(CN1C(=O)/C(=C/c2ccco2)SC1=S)NC1CCS(=O)(=O)C1` (centres undefined) as the molecule, how does the activity change, negative = inhibition read?
A: The activity change, negative = inhibition was inconclusive: -110% [inhibitor].

Q: With `Cc1ccc(C(=O)O/N=C2\CC3CCC2(C)C3(C)C)cc1` (centres undefined) as the molecule, how does the Potency read?
A: Its Potency is inconclusive: 89.1 µM [inhibitor, single point].

Q: For `COc1ccc(-c2csc3ncnc(Nc4ccc(OC)c(OC)c4)c23)cc1`, which Potency is on record?
A: The Potency was inconclusive: 22.4 µM [inhibitor, full curve].

Q: How did the Potency turn out when `O=C(O)/C(=C/c1ccco1)NC(=O)c1ccc(Br)o1` was run?
A: The Potency was inconclusive: 89.1 µM [inhibitor, partial curve].

Q: `CCOc1cc(/C=N/NC(N)=O)ccc1OC(=O)c1ccc(C)cc1` was tested. Which Potency did it give?
A: The Potency was “inactive”.

Q: For `CC1(C)C(c2ccccc2)=NC(c2ccc(F)cc2)N1O` (centres undefined), which Potency is on record?
A: Its Potency is inconclusive: 39.8 µM [inhibitor, partial curve, poor fit].

Q: How did the Potency turn out when `COc1ccc(S(=O)(=O)NCCSCc2ccco2)cc1OC` was run?
A: Its Potency is active: 39.8 µM.

Q: Which Potency does the source give for `CC#CC#Cc1cccc(=O)o1` here?
A: The Potency was inconclusive: 50.1 µM [inhibitor, partial curve].

Q: With `O=C1c2ccccc2C(=O)c2[nH]c(=O)[nH]c21` as the molecule, how does the Potency read?
A: The Potency was active: 50.1 µM.

Q: With `Cc1ccc(C)c(N2CCN(CCCNC(=O)Cn3c(-c4cccs4)cc4ccccc43)CC2)c1` as the molecule, how does the Potency read?
A: Its Potency is “inactive”.

Q: For `CCOC(=O)c1cnc(-n2nc(C)cc2C)nc1NCCc1ccccc1`, which Potency is on record?
A: Its Potency is “inactive”.

Q: How did the Potency turn out when `O=C(/C=C/c1ccco1)Nc1cc(Cl)ccc1C(=O)O` was run?
A: Its Potency is active: 22.4 µM.

Q: `COc1ccc(Cl)cc1NC(=O)CSc1nc2sccc2c(=O)[nH]1` was tested. Which Potency did it give?
A: The Potency was active: 56.2 µM.

Q: Which Potency does the source give for `COc1nc(-c2cccc([N+](=O)[O-])c2)nc2ccccc12` here?
A: The Potency was inconclusive: 70.8 µM [inhibitor, single point].

Q: `CC(C)(C)C(=O)NCCCc1ccccc1` was tested. Which Potency did it give?
A: Its Potency is inconclusive: 35.5 µM [inhibitor, partial curve].

Q: `Nc1nnnn1/N=C/c1ccccc1OCc1ccc(Cl)cc1Cl` was tested. Which Potency did it give?
A: Its Potency is inconclusive: 25.1 µM [inhibitor, full curve].

Q: `COC(=O)c1ccccc1NC(=O)CSc1nc2sc3c(c2c(=O)[nH]1)CCCC3` was tested. Which Potency did it give?
A: Its Potency is inconclusive: 20 µM [inhibitor, full curve].

Q: How did the Potency turn out when `COc1ccc(-c2cc(C(F)(F)F)nc(S(=O)(=O)CCCC(=O)Nc3ccccc3C(F)(F)F)n2)cc1OC` was run?
A: The Potency was inconclusive: 0.794 µM [inhibitor, full curve, poor fit].

Q: For `COc1cccc(CNC(=O)Cn2cc3c(n2)-c2c(oc(C(=O)N4CCOCC4)c2C)CC3)c1`, which Potency is on record?
A: Its Potency is “inactive”.

Q: For `C/C(=N\NC(=O)c1ccc(NS(=O)(=O)c2cccs2)cc1)c1cccs1`, which Potency is on record?
A: The Potency was “inactive”.

Q: `O=c1c(C=Nc2cccc(C(F)(F)F)c2)c[nH]n1-c1cccc(Cl)n1` was tested. Which Potency did it give?
A: The Potency was inconclusive: 50.1 µM [inhibitor, partial curve].

Q: Which Potency does the source give for `Clc1ccc2[nH]cc(-c3nnnn3-c3ccc4ccccc4c3)c2c1` here?
A: Its Potency is inconclusive: 22.4 µM [inhibitor, partial curve, poor fit].

Q: How did the Potency turn out when `COc1ccc2c(c1)NC1(O)c3ccccc3C(=O)C21O` (centres undefined) was run?
A: The Potency was “inactive”.

Q: For `O=C(NCC1CCCO1)c1nn2c(C(F)(F)F)cc(-c3cccs3)nc2c1Br` (centres undefined), which Potency is on record?
A: The Potency was “inactive”.

Q: Which Potency does the source give for `c1ccc(CSc2nnc(-c3ccco3)n2Cc2ccco2)cc1` here?
A: The Potency was inconclusive: 20 µM [inhibitor, single point].

Q: Which Potency does the source give for `CC1=[N+](C)c2c(ccc3cccnc23)C1(C)C` here?
A: Its Potency is active: 25.1 µM.

Q: `Cc1ccc(C(=O)NC(=S)Nc2ccc(-c3ccc(CO)o3)cc2)cc1` was tested. Which Potency did it give?
A: The Potency was inconclusive: 35.5 µM [inhibitor, partial curve].

Q: Which Potency does the source give for `Cc1ccc(C(=O)c2cn(Cc3ccc(F)cc3)c3nc(C)ccc3c2=O)cc1` here?
A: The Potency was “inactive”.

Q: For `Cc1ccc(NC(=O)c2nnn(CC(=O)Nc3ccccc3)c2N)cc1C`, which Potency is on record?
A: Its Potency is inconclusive: 7.08 µM [inhibitor, full curve].

Q: For `CCn1c(=O)c2c(nc3n2CCS3)n(C)c1=O`, which Potency is on record?
A: Its Potency is inconclusive: 35.5 µM [inhibitor, single point].

Q: How did the Potency turn out when `[O-][n+]1cccc2c(Br)cc(Br)c(O)c21` was run?
A: The Potency was “inactive”.

Q: Which Potency does the source give for `COCCNC(=S)Nc1ccc(Cl)c(Cl)c1` here?
A: Its Potency is “inactive”.

Q: How did the Potency turn out when `Cc1ccnc(NS(=O)(=O)c2ccc(NC(=O)c3cc(=O)c4ccc(C)c(C)c4o3)cc2)n1` was run?
A: Its Potency is “inactive”.

Q: With `O=C(/C=C/c1ccc([N+](=O)[O-])cc1)/C=C/c1ccco1` as the molecule, how does the Potency read?
A: Its Potency is active: 10 µM.

Q: With `COc1cc(CNC2CCCC2)cc(OC)c1OC` as the molecule, how does the Potency read?
A: The Potency was inconclusive: 89.1 µM [inhibitor, single point].

Q: `CCOC(=O)c1cc2c(=O)n3ccccc3nc2n(Cc2ccco2)c1=NC(=O)c1ccccc1OCC` was tested. Which Potency did it give?
A: The Potency was “inactive”.

Q: `CCOc1cc(N2C(=O)CC3CS(=O)(=O)CC32)c(OCC)cc1NC(=O)c1ccccc1` (centres undefined) was tested. Which Potency did it give?
A: The Potency was “inactive”.

Q: For `Cc1oc(-c2ccccc2F)nc1Cn1c(SCc2ccccc2F)nc2ccncc21`, which Potency is on record?
A: The Potency was “inactive”.

Q: For `Oc1ccc(C=Nc2ccc(N3CCOCC3)cc2)c(O)c1`, which Potency is on record?
A: Its Potency is “inactive”.

Q: `Cc1ccc(S(=O)(=O)n2ccc3c(OCCOCCNCc4ccc(F)cc4)cccc32)cc1` was tested. Which Potency did it give?
A: Its Potency is “inactive”.

Q: With `COc1ccc(OC)c(/C=C2\SC(=S)N(NS(=O)(=O)c3ccccc3)C2=O)c1` as the molecule, how does the Potency read?
A: The Potency was inconclusive: 89.1 µM [inhibitor, single point].

Q: Which Potency does the source give for `O=C(Nc1ccccc1)N(CCN1CCOCC1)Cc1cccc(Cl)c1` here?
A: The Potency was inconclusive: 3.98 µM [inhibitor, single point].

Q: For `CCOC(=O)N1CCN(c2ncnc3c2cnn3-c2ccc(OC)cc2)CC1`, which Potency is on record?
A: Its Potency is inconclusive: 44.7 µM [inhibitor, partial curve].

Source: PubChem BioAssay AID485314 (National Center for Advancing Translational Sciences (NCATS), 2010)
